Test system: TC-1 cells
Assay: Interaction of FITC-labeled polypeptide with TC-1 cell (flow cytometry, confocal microscopy)
Assay type: cell-based, mouse
Protocol: The separated protein was digested by trypsin, polypeptides produced from the digestion was labeled by iTRAQ 4-plex reagents, and the labeled polypeptides were quantitatively analyzed by using a system combining a nano high performance liquid chromatography and a triple time of flight mass spectrometer. […] Besides, the F3 polypeptide and a control polypeptide P3 were labeled by fluorescent dye fluorescein isothiocyanate (FITC), incubated together with TC-1 cells for different periods, and repeatedly washed, thereafter a fluorescence intensity of FITC in the TC-1 cell was detected by a flow cytometry (FIG. 5A).
1000 μL of 5×10^5 TC-1 cells cultured in a RPMI medium containing 10% of calf serum were added into a 24-well cell culture plate, 2 μg/mL of the F3 polypeptide labeled by FITC was added into the cells being incubated, cells at different time points of the incubation were collected and washed with PBS buffer solution, and then the relationship between the F3 polypeptide and TC-1 cell was observed by a flow cytometer (FIG. 5A) or a confocal microscopy (FIG. 5B).

## F3 polypeptide: polypeptide of SEQ ID NO: 2, sequence found in tree frog secretion, made by solid phase peptide synthesis; Caerin polypeptide (GLFGVLGSIAKHLLPHVVPVIAEKL; the sequence is synthesized)
2 μg/mL FITC-labeled polypeptide (FIG. 5A, 5B)
  combination with the TC-1 cell: can be combined with the TC-1 cell
Confocal microscopy, incubated together for 1 hour (FIG. 5B)
  location in the TC-1 cell: penetrated through the cytomembrane of the TC-1 cell and distributed non-uniformly in the cytoplasm

Reference: patent US11040085B2, “Pharmaceutical composition containing F1 polypeptide and/or F3 polypeptide and use thereof” (priority 2016, dated 2021)
